From publication PMC9600610 come the findings set out here.

The chains behind the UniProt entries cited, without tags or fusion partners.
UniProt P02584: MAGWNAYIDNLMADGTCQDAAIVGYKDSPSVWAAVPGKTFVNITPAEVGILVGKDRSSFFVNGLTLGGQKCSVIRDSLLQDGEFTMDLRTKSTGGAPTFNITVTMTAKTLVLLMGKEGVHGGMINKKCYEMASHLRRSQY
UniProt Q2KJ93: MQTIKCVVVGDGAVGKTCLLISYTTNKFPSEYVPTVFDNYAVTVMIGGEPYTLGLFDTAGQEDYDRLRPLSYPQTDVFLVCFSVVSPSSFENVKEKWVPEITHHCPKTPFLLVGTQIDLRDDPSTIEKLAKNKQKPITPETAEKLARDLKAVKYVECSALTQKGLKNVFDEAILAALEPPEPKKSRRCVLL

This assay has as its target Profilin1 (bovine (endogenous in bovine myoblasts)) (UniProt P02584). The assay can be described thus: co-IP; PFN1 antibody or IgG on protein A/G magnetic beads, incubated with lysate of DM2 bovine myoblasts at 4 °C overnight; Cdc42 detected by Western blot. On the technique in general: In western blotting, separated proteins are transferred to a membrane and probed.

Results are given in words; binding and its absence hold for the method and conditions named. Binding seen in cells or lysates may run through a third protein. Some entries that bind do so weakly or less than the wild type.

Turning to Cdc42 (from UniProt Q2KJ93 1-191), the binding result is “binds”.
